# Experimental data taken from patent US8834579B2, “Dye composition for hair dyeing and method for producing the same” (Hodogaya Chemical Co., Ltd., priority 2012, dated 2014).
# Some of these results come from one statement about several compounds together.
# Key:
# [1] = tested on: Salmonella typhimurium TA98 strain; assay: Ames test (reverse mutation test), TA98 strain; assay type: cell-based; settings: TA98, metabolic activation test (+S-9Mix)
# Text: (§1) The Ames test is a test system for detecting a phenomenon that a histidine-requiring strain, which cannot grow without a specific amino acid (for example, histidine), is returned to a histidine-nonrequiring strain by a gene mutation due to a mutational substance. The Ames test is also called a reverse mutation test because a strain regains its original nature by a gene mutation. In the case of a metabolic activation test, a test substance, a test strain, and an enzyme for activating metabolism of drugs (S-9Mix) are mixed, and the mixture is cultured for 48 hours at 37° C. using an agar medium after preincubation for 20 minutes at 37° C. The number of induced revertant colonies is counted, and it is determined to be positive in the case where the ratio (MR value) of the number of the induced revertant colonies to the number of revertant colonies appearing in a negative control is 2 or more (refer to, for example, “Bacterial Reverse Mutation Test.” OECD GUIDELINE FOR TESTING OF CHEMICALS, no. 471, Adopted: 21, Jul. 1997).
# (§2) The metabolic activation test is a test carried out by adding an enzyme for activating metabolism of drugs (that is, S-9Mix) which is obtained from a liver of a rat or the like in order to bring a metabolic system of drugs for microbes close to that of mammals. […]
# [2] = tested on: Salmonella typhimurium TA1537 strain; assay: Ames test (reverse mutation test), TA1537 strain; assay type: cell-based; settings: TA1537, metabolic activation test (+S-9Mix)
# Text: as §1, §2
structure (smiles),measurement,setting,value
CN(C)c1ccc2ccc(O)c(N=Nc3ccc(N)cc3)c2c1 [Component of structural formula (III)],Ames test result,[1],positive (it is determined to be positive in the case where the ratio (MR value) of the number of the induced revertant colonies to the number of revertant colonies appearing in a negative control is 2 or more)
same,Ames test result,[2],positive (it is determined to be positive in the case where the ratio (MR value) of the number of the induced revertant colonies to the number of revertant colonies appearing in a negative control is 2 or more)
